Reference: PubChem BioAssay AID652243 (Drosophila RNAi Screening Center, 2013)

- Screen: 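Fly regulators of androgen-dependent reporter output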 (primary screen)
- System: Drosophila S2R+ cells
- Reagent: long dsRNA against Drosophila genes
- Timing: 72 h (48 h, then 24 h hormone)
- Conditions: synthetic androgen R1881 at 10 nM for 24 h
- Detection: 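Firefly light from an androgen-responsive reporter and Renilla control light per well, raw and unnormalised, for each of two replicates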
- Direction: firefly reporter light: higher = more light from androgen-responsive reporter; Renilla control light: higher = more constitutive control signal (cell number, transfection)
- Rule for the call: 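Across duplicate plates, a knock-down whose log firefly/Renilla ratio shifted a set fold down or up from the GFP/LacZ control mean was a hit; the downward cut appears as both 1.5 and 3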
- Meaning of the calls: active = hit: reporter lowered or raised; inactive = no hit
The deposit covers about 24,000 reagents; shown is an unselected part of those that have a named target and a result. Of all reagents, 246 (1%) were called active. 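Plates not normalised; calls are printed but the firefly/Renilla ratio behind them is not deposited; fold cut for lowering reported inconsistently.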 Raw values are not corrected between plates. The numbers tell different reagents against one gene apart. Not given: the amount of reagent.

The opening 3 records as a preview:
gene knocked down,dsRNA no.,"firefly reporter light, replicate 1","firefly reporter light, replicate 2","Renilla control light, replicate 1","Renilla control light, replicate 2",Call
CG32432,1,1.68e5,1.97e5,1.72e6,2.04e6,inactive
CG13198,1,4.13e5,3.08e5,2.07e6,1.86e6,inactive
Ir7g,1,1.25e5,2.23e5,1.93e6,2.25e6,inactive

The list itself, repeating the preview:
gene knocked down,dsRNA no.,"firefly reporter light, replicate 1","firefly reporter light, replicate 2","Renilla control light, replicate 1","Renilla control light, replicate 2",Call
CG32432,1,1.68e5,1.97e5,1.72e6,2.04e6,inactive
CG13198,1,4.13e5,3.08e5,2.07e6,1.86e6,inactive
Ir7g,1,1.25e5,2.23e5,1.93e6,2.25e6,inactive
Ir7g,2,4.86e5,4.63e5,1.07e6,1.28e6,inactive
CG17726,1,6.64e5,7.06e5,3.53e6,4.10e6,inactive
CG3610,1,2.31e5,1.81e5,2.84e6,2.46e6,inactive
CG3610,2,1.68e5,2.27e5,8.28e5,8.81e5,inactive
Ir7e,1,4.88e5,4.99e5,1.46e6,2.60e6,inactive
Sec31,1,8.47e5,8.42e5,1.09e6,1.25e6,inactive
Sec31,2,4.77e5,2.93e5,6.57e5,4.50e5,inactive
Obp73a,1,3.64e5,3.98e5,2.82e6,2.80e6,inactive
GstE8,1,8.21e5,1.03e6,2.02e6,1.99e6,inactive
Dhit,1,6.46e5,6.17e5,1.63e6,1.73e6,inactive
Dhit,2,6.18e5,5.61e5,8.60e5,7.96e5,inactive
HP6,1,82727,1.02e5,7.27e5,8.85e5,inactive
Gdap1,1,1.40e5,1.87e5,1.45e6,1.61e6,inactive
Gdap1,2,5.42e5,7.76e5,1.00e6,1.81e6,inactive
HtrA2,1,1.56e5,1.03e5,2.35e6,2.35e6,inactive
HtrA2,2,3.24e5,7.72e5,4.12e5,1.09e6,inactive
Cks30A,1,6.63e5,7.89e5,1.86e6,1.64e6,inactive
Cks30A,2,,,,,inactive
Sf3b6,1,2.04e5,3.23e5,2.29e6,3.37e6,inactive
Sf3b6,2,3.19e5,3.74e5,5.38e5,5.35e5,inactive
CG11356,1,3.69e5,3.78e5,2.42e6,2.44e6,inactive
Pex13,1,8.01e5,7.50e5,1.75e6,2.36e6,inactive
CG13404,1,6.66e5,5.43e5,3.16e6,3.74e6,inactive
mrj,1,8.87e5,6.59e5,5.74e5,5.15e5,inactive
mrj,2,3.88e5,3.13e5,5.14e5,4.53e5,inactive
JMJD7,1,5.76e5,6.59e5,2.90e6,3.62e6,inactive
cora,1,69181,72927,8.06e5,8.54e5,inactive
cora,2,5.91e5,4.53e5,1.53e6,1.48e6,inactive
CG30022,1,3.90e5,1.18e6,8.43e5,2.34e6,inactive
CG12106,1,1.18e5,1.05e5,6.82e5,6.78e5,inactive
CG32267,1,7.96e5,7.31e5,4.47e5,5.34e5,inactive
CG32267,2,6.61e5,6.75e5,8.40e5,8.14e5,inactive
fj,1,98169,1.56e5,1.60e6,1.60e6,inactive
fj,2,3.01e5,3.25e5,4.71e5,5.16e5,inactive
Coa8,1,2.97e5,3.67e5,2.51e6,2.61e6,inactive
klu,1,1.90e5,1.93e5,2.16e6,1.83e6,inactive
klu,2,3.34e5,3.57e5,5.05e5,5.30e5,inactive
HP4,1,5.90e5,5.36e5,9.69e5,1.86e6,inactive
Fic,1,4.65e5,6.68e5,1.18e6,1.25e6,inactive
PH4alphaNE3,1,1.30e5,67092,7.06e5,5.78e5,inactive
PH4alphaNE3,2,4.30e5,3.90e5,3.81e5,5.00e5,inactive
CG8891,1,1.95e5,1.62e5,2.11e6,1.66e6,inactive
CG8891,2,3.65e5,6.38e5,1.31e6,1.89e6,inactive
fus,1,1.38e5,1.92e5,4.58e5,6.33e5,inactive
fus,2,1.12e6,1.46e6,2.31e6,2.92e6,inactive
CG33272,1,98053,84029,72599,59552,inactive
Sardh,1,5.71e5,3.18e5,6.09e5,3.90e5,inactive
CG15127,1,2.02e5,1.09e5,2.83e5,2.32e5,inactive
CG15127,2,1.99e5,2.17e5,2.02e6,2.01e6,inactive
Lsp2,1,1.52e5,1.48e5,1.63e6,1.76e6,inactive
Lsp2,2,1.88e5,1.64e5,1.98e6,1.73e6,inactive
Lsp2,3,4.09e5,3.30e5,4.60e5,4.42e5,inactive
CG31457,1,5.18e5,6.62e5,1.79e6,2.27e6,inactive
CG31457,2,4.40e5,6.80e5,1.23e6,1.25e6,inactive
ninaE,1,3.19e5,2.93e5,3.53e6,3.12e6,inactive
ninaE,2,4.38e5,4.01e5,4.56e5,4.95e5,inactive
CG13196,1,2.57e5,1.83e5,1.33e6,1.27e6,inactive
Inx2,1,1.14e5,1.42e5,1.13e6,9.38e5,inactive
Inx2,2,4.57e5,6.15e5,4.32e5,6.13e5,inactive
swaPsi,1,7.55e5,7.72e5,1.80e6,1.52e6,inactive
GstE7,1,8.09e5,6.95e5,2.20e6,2.41e6,inactive
lncRNA:CR32160,1,4.31e5,1.07e6,9.99e5,2.05e6,inactive
tipE,1,8.81e5,5.14e5,1.83e6,1.15e6,inactive
tipE,2,5.28e5,5.41e5,9.75e5,1.06e6,inactive
CG3662,1,7.20e5,7.01e5,1.62e6,1.16e6,inactive
BOD1,1,72152,81628,6.07e5,4.36e5,inactive
BOD1,2,5.24e5,6.66e5,9.37e5,9.54e5,inactive
l(2)gd1,1,1.10e6,4.94e5,1.94e6,1.44e6,inactive
l(2)gd1,2,5.28e5,8.92e5,1.36e6,1.49e6,inactive
CG43316,1,1.97e5,1.99e5,1.36e6,1.02e6,inactive
CG43316,2,1.72e5,3.21e5,4.18e5,8.54e5,inactive
